Laboratory results reported in PMC4490784, “Compensatory induction of MYC expression by sustained CDK9 inhibition via a BRD4-dependent mechanism” (eLife, 2015).
These are yes or no findings as the source states them, for the method shown. In cells and extracts the contact can be indirect. Some binding calls cover weakened binding; strength is not graded here.

Amino acid sequences for entries named in this document (tags omitted).
UniProt P01106: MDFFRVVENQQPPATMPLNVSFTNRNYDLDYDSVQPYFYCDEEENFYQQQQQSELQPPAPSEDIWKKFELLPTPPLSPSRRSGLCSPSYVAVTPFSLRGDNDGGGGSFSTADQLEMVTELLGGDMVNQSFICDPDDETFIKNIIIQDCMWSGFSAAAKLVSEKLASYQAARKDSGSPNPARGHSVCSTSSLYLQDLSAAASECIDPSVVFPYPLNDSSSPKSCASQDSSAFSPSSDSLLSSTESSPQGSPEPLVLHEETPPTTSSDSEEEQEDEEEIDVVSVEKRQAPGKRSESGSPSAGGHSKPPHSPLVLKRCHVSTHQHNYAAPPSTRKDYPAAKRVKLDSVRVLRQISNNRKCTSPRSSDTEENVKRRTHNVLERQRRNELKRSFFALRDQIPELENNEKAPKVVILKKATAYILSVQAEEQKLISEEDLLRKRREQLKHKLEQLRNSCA
UniProt P50750: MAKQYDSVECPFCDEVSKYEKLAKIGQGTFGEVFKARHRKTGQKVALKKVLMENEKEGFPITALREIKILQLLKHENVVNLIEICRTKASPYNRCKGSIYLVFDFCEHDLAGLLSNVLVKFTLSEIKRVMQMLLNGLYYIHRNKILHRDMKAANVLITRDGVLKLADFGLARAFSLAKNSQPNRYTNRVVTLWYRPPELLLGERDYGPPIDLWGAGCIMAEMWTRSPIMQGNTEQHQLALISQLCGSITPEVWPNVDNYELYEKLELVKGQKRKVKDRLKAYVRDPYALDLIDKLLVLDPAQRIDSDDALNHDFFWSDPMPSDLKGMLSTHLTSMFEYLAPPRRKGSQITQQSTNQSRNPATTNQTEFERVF
UniProt O94992: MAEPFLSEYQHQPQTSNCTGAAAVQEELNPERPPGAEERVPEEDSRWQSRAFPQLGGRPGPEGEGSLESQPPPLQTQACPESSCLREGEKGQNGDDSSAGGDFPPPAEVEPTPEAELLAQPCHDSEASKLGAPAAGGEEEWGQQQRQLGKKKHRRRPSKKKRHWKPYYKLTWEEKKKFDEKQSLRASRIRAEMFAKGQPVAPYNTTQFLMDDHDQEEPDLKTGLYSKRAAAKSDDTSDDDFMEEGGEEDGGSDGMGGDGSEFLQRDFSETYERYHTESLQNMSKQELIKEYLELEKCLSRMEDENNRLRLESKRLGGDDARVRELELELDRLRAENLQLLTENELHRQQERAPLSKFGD

Legend:
Flag-tagged MYC (MYC-F) = Flag-tagged MYC (MYC-F) (UniProt P01106); experiment: co-IP; anti-Flag immunoprecipitation of MYC-F from nuclear extracts of HeLa-based cells, untreated or treated with i-CDK9 or DMSO; immunoblotting
[1] = target: Flag-tagged CDK9 (CDK9-F) (UniProt P50750); experiment: co-IP; anti-Flag immunoprecipitation of CDK9-F from nuclear extracts of F1C2 cells treated with a range of i-CDK9 concentrations for 8 hr; Western blotting

binding (Flag-tagged MYC (MYC-F))	binding [1]	Substance
binds	–	CDK9 (from UniProt P50750 1-372) (enzyme)
–	binds	HEXIM1 (from UniProt O94992 1-359)
